Experimental findings from patent US8084434 are described below.

Chains of the proteins cited; added tags and fusions are not shown. Lines headed by an entry give the natural chain unless they say otherwise; changes in a name come on top.
UniProt Q13950: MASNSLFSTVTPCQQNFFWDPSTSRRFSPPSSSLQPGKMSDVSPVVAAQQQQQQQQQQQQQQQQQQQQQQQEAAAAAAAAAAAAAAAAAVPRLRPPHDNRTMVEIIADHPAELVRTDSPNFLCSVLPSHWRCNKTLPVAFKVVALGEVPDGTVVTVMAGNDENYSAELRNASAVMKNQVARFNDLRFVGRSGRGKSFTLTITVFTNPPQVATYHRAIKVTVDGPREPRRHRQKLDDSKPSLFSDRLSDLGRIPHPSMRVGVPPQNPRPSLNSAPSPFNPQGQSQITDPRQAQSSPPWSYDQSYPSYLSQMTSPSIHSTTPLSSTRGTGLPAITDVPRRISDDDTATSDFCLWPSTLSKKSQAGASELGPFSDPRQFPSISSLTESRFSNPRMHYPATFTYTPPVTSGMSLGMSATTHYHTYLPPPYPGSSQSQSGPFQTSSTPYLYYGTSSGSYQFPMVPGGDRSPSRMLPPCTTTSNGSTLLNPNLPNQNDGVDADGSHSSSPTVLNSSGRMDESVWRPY
UniProt P46937: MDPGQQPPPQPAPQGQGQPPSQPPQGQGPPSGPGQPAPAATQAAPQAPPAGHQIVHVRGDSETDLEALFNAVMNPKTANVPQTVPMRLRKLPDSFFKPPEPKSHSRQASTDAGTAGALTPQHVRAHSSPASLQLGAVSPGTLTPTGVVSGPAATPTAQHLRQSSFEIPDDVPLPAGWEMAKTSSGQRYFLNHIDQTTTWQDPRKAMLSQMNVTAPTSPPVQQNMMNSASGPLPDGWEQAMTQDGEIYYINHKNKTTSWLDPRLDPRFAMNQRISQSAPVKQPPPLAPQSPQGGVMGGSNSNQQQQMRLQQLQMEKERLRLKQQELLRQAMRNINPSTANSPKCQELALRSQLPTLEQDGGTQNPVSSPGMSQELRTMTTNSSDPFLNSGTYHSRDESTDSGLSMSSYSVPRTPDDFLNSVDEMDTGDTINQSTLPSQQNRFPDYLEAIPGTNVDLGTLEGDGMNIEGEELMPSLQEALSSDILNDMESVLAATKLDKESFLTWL

Results are given in words; binding and its absence hold for the method and conditions named. In cells and extracts the contact can be indirect. Some binding calls cover weakened binding; strength is not graded here.

The target in test [1] is Flag.RUNX2 (Homo sapiens (Human)) (UniProt Q13950). The test can be described thus: reciprocal co-immunoprecipitation from nuclear lysates of transfected HEK293 cells, Western blot. For orientation: A western blot detects proteins with antibodies after separation by electrophoresis.
For test [2] the target is unchanged. The test can be described thus: co-immunoprecipitation of Flag.RUNX2 and HA.YAP.

As to HA.YAP (from UniProt P46937 1-504), the binding result in test [1] and in test [2] was “binds” throughout.
